These are yes or no findings as the source states them, for the method shown. In cells and extracts the contact can be indirect. Some binding calls cover weakened binding; strength is not graded here.
B1: δ-COP (ARCN1), endogenous in LNCaP cells (protein, UniProt P48444 1-511)
chain: MVLLAAAVCTKAGKAIVSRQFVEMTRTRIEGLLAAFPKLMNTGKQHTFVETESVRYVYQPMEKLYMVLITTKNSNILEDLETLRLFSRVIPEYCRALEENEISEHCFDLIFAFDEIVALGYRENVNLAQIRTFTEMDSHEEKVFRAVRETQEREAKAEMRRKAKELQQARRDAERQGKKAPGFGGFGSSAVSGGSTAAMITETIIETDKPKVAPAPARPSGPSKALKLGAKGKEVDNFVDKLKSEGETIMSSSMGKRTSEATKMHAPPINMESVHMKIEEKITLTCGRDGGLQNMELHGMIMLRISDDKYGRIRLHVENEDKKGVQLQTHPNVDKKLFTAESLIGLKNPEKSFPVNSDVGVLKWRLQTTEESFIPLTINCWPSESGNGCDVNIEYELQEDNLELNDVVITIPLPSGVGAPVIGEIDGEYRHDSRRNTLEWCLPVIDAKNKSGSLEFSIAGQPNDFFPVQVSFVSKKNYCNIQVTKVTQVDGNSPVRFSTETTFLVDKYEIL
B2: α-COP, endogenous in LNCaP cells (protein, UniProt P53621 1-1224)
chain: MLTKFETKSARVKGLSFHPKRPWILTSLHNGVIQLWDYRMCTLIDKFDEHDGPVRGIDFHKQQPLFVSGGDDYKIKVWNYKLRRCLFTLLGHLDYIRTTFFHHEYPWILSASDDQTIRVWNWQSRTCVCVLTGHNHYVMCAQFHPTEDLVVSASLDQTVRVWDISGLRKKNLSPGAVESDVRGITGVDLFGTTDAVVKHVLEGHDRGVNWAAFHPTMPLIVSGADDRQVKIWRMNESKAWEVDTCRGHYNNVSCAVFHPRQELILSNSEDKSIRVWDMSKRTGVQTFRRDHDRFWVLAAHPNLNLFAAGHDGGMIVFKLERERPAYAVHGNMLHYVKDRFLRQLDFNSSKDVAVMQLRSGSKFPVFNMSYNPAENAVLLCTRASNLENSTYDLYTIPKDADSQNPDAPEGKRSSGLTAVWVARNRFAVLDRMHSLLIKNLKNEITKKVQVPNCDEIFYAGTGNLLLRDADSITLFDVQQKRTLASVKISKVKYVIWSADMSHVALLAKHAIVICNRKLDALCNIHENIRVKSGAWDESGVFIYTTSNHIKYAVTTGDHGIIRTLDLPIYVTRVKGNNVYCLDRECRPRVLTIDPTEFKFKLALINRKYDEVLHMVRNAKLVGQSIIAYLQKKGYPEVALHFVKDEKTRFSLALECGNIEIALEAAKALDDKNCWEKLGEVALLQGNHQIVEMCYQRTKNFDKLSFLYLITGNLEKLRKMMKIAEIRKDMSGHYQNALYLGDVSERVRILKNCGQKSLAYLTAATHGLDEEAESLKETFDPEKETIPDIDPNAKLLQPPAPIMPLDTNWPLLTVSKGFFEGTIASKGKGGALAADIDIDTVGTEGWGEDAELQLDEDGFVEATEGLGDDALGKGQEEGGGWDVEEDLELPPELDISPGAAGGAEDGFFVPPTKGTSPTQIWCNNSQLPVDHILAGSFETAMRLLHDQVGVIQFGPYKQLFLQTYARGRTTYQALPCLPSMYGYPNRNWKDAGLKNGVPAVGLKLNDLIQRLQLCYQLTTVGKFEEAVEKFRSILLSVPLLVVDNKQEIAEAQQLITICREYIVGLSVETERKKLPKETLEQQKRICEMAAYFTHSNLQPVHMILVLRTALNLFFKLKNFKTAATFARRLLELGPKPEVAQQTRKILSACEKNPTDAYQLNYDMHNPFDICAASYRPIYRGKPVEKCPLSGACYSPEFKGQICRVTTVTEIGKDVIGLRISPLQFR

The chains behind the UniProt entries cited, without tags or fusion partners.
UniProt Q96RR4: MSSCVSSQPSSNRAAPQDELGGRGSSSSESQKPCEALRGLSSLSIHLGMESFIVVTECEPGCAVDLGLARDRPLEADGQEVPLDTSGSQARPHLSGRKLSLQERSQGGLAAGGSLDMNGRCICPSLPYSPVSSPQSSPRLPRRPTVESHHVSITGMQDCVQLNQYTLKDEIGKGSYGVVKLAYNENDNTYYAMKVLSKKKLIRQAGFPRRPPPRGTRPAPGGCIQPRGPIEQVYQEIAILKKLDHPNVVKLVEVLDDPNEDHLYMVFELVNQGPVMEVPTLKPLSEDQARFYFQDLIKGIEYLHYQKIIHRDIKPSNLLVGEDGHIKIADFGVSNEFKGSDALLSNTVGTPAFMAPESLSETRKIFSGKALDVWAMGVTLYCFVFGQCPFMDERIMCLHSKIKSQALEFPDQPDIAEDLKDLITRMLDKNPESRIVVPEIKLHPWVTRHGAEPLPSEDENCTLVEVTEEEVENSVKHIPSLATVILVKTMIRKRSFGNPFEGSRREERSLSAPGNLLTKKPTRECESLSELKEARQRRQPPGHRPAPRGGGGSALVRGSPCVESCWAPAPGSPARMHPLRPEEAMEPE
UniProt Q16637: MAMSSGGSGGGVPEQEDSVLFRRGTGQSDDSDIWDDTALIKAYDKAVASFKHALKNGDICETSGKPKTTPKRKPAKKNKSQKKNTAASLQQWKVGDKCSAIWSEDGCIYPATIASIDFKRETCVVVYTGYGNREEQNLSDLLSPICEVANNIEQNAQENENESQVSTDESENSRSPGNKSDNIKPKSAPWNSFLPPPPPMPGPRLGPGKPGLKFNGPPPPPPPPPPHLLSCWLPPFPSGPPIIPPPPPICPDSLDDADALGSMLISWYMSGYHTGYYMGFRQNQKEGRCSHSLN
UniProt Q9UHI6: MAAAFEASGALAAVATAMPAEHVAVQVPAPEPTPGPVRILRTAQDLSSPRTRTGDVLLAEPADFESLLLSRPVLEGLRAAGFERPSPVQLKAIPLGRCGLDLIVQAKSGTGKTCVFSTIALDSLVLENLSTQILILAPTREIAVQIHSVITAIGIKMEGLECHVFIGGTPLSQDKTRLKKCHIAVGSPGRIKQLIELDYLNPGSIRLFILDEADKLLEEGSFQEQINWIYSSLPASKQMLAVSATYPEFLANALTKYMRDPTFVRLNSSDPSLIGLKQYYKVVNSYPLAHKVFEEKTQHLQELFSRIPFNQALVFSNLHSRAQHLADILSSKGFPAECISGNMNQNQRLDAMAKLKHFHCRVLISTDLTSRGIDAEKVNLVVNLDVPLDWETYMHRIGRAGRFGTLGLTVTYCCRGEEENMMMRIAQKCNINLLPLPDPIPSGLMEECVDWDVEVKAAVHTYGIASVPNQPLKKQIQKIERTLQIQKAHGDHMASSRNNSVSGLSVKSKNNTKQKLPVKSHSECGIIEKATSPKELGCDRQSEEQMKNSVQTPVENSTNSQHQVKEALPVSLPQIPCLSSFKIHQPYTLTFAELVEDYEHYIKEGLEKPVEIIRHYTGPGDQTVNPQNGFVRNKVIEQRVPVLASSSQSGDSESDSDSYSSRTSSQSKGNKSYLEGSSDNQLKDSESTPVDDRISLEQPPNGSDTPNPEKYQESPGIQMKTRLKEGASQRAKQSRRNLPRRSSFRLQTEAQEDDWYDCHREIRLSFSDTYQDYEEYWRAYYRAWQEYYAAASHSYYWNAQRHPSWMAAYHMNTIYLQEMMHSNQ
UniProt P57678: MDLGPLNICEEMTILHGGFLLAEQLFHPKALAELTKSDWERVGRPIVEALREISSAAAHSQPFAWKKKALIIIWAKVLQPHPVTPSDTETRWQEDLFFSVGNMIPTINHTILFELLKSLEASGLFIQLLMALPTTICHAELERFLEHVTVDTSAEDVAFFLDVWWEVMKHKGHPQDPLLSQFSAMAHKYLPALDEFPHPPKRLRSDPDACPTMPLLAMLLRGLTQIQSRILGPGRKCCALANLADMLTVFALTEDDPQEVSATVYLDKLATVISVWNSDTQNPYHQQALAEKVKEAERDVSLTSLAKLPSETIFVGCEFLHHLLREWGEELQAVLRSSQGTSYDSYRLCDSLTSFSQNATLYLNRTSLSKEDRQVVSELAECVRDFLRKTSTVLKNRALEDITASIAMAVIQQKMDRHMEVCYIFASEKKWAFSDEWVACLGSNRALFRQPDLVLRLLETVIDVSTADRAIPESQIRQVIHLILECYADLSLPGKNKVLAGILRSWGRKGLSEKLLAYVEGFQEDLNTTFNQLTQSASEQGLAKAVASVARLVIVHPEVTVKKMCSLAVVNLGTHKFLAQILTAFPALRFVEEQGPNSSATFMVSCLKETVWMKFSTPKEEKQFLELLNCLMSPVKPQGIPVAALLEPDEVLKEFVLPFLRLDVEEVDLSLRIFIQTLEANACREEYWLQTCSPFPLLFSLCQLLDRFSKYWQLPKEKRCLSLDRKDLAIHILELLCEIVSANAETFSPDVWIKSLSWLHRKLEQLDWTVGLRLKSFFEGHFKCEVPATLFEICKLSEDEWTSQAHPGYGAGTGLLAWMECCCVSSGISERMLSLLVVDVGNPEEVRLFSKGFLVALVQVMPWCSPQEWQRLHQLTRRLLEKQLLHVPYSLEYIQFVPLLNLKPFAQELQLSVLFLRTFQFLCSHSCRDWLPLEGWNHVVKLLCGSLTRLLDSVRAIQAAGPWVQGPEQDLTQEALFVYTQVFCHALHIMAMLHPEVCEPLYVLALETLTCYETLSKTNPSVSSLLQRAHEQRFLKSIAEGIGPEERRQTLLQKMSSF
UniProt P61923: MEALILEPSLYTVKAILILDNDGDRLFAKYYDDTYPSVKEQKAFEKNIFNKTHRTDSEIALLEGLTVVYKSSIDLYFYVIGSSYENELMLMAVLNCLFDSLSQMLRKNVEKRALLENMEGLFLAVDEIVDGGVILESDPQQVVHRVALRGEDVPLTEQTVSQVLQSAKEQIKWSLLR

The molecules below were run against T1, Gemin4 CaMKK2 Binding Motif peptide, biotinylated (assay: pull-down; biotinylated peptide as bait (Pierce Biotinylated Protein Interaction Kit, avidin/streptavidin) with LNCaP cell lysate, steady state or 24 h 10 nM R1881 or ethanol; western blot; only the target purified).
T1 sequence (peptide, biotin): SLTSFSQNA

Molecule | binding
Calcium/calmodulin-dependent protein kinase kinase 2 (CaMKK2), endogenous in LNCaP cells (from UniProt Q96RR4 1-588) | binds
Gemin1/SMN1, endogenous in LNCaP cells (from UniProt Q16637 1-294) | no binding
Gemin3/DDX20, endogenous in LNCaP cells (from UniProt Q9UHI6 1-824) | binds
Gemin4, endogenous in LNCaP cells (from UniProt P57678 1-1058) | binds
ζ-COP, endogenous in LNCaP cells (from UniProt P61923 1-177) | binds

Biological target: T1, Gemin4 CaMKK2 Binding Motif peptide, biotinylated
Experiment: as above
Remark: another data set of the same source

Molecule | binding
B1 | binds
B2 | binds

From publication PMC8560770
